{"source": "patent US20190380957A1", "about": "(New Jersey Institute of Technology, priority 2018, published 2019)", "experiment": "general procedure: Fmoc solid-phase peptide synthesis", "conditions": "whole synthesis", "note": "Some peptides are written in HELM: one residue between dots, names in brackets for other building blocks, links after the first $."}
{"substance": "PEPTIDE1{[ac].K.S.L.S.L.S.L.S.L.S.L.S.L.K.G.P.R.K.L.Y.D.Y.[am]}$$$$V2.0", "values": [{"measurement": "final HPLC purity", "result": ">95", "unit": "%"}]}
